Series [1] in a line: Checking the washing-out behavior. The settings on record: shampooed five times for one minute with a neutral shampoo; averaged over 5 strands of hair.
Series [2] in a line: Checking the light-fastness (Atlas Suntest CPS+ xenon lamp). Conditions: 1.5 kW xenon arc lamp irradiation; averaged over 5 strands of hair.

As for `COCCNc1ccc([N+](=O)[O-])cc1` [Example 1, N-(2-methoxyethyl)-4-nitro-phenylamine], in series [1], the “Washing-out behavior ΔE value” was 26.7. The “Light Fastness ΔE value” in series [2] stood at 42.7.
In the same order, the values of `COCCNc1ccc([N+](=O)[O-])cc1C` [Example 2, N-(2-methoxyethyl)-2-methyl-4-nitrophenylamine] are 16.2 and 38.8.
